Laboratory results: paper doi:10.1101/2022.10.22.513345 (bioRxiv, 2022)
These are yes or no findings as the source states them, for the method shown. Some results given as binding are weak or reduced against the parent protein; the word gives no strength.

By UniProt entry, the sequences of proteins in these tests, tags left out. Residues count along the entry.
UniProt O95858, whole entry: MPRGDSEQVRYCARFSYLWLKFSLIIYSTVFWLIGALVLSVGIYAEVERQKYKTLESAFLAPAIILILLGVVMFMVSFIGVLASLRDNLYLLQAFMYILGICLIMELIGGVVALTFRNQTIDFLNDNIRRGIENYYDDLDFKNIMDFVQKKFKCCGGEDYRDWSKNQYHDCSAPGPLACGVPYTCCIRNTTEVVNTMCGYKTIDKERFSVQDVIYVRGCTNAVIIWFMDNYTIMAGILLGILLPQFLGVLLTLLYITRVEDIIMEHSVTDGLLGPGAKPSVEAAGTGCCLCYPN
UniProt O14672, 214-748: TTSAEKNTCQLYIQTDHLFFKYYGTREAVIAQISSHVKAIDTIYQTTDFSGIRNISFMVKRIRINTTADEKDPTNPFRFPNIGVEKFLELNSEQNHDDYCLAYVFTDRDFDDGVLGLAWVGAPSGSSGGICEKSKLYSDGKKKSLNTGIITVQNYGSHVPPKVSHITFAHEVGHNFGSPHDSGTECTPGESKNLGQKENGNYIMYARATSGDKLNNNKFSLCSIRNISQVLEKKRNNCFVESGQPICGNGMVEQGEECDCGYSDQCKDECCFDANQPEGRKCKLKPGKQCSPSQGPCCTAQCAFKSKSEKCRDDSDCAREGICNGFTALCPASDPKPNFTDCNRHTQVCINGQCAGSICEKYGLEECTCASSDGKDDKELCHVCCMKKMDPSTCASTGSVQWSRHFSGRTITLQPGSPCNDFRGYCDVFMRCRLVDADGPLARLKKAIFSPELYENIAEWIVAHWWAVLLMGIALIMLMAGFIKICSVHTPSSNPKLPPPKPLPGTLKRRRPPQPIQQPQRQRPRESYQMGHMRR

Molecular target: His-EK-Tspan15 (UniProt O95858)
Assay: cryo-EM structure

- binding: binds
Substance: FLAG-ADAM10 (A Disintegrin and Metalloproteinase 10), mature species used for structure determination (from UniProt O14672 214-748) (enzyme)
